Measurements reported in patent publication US20050085457A1, “Therapeutic quinolone compounds with 5-ht-antagonistic properties” (priority 2001, published 2005).
Some results were stated once for a whole list of compounds, not compound by compound.

By UniProt entry, the sequences of proteins in these tests, tags left out.
UniProt O08892, whole entry: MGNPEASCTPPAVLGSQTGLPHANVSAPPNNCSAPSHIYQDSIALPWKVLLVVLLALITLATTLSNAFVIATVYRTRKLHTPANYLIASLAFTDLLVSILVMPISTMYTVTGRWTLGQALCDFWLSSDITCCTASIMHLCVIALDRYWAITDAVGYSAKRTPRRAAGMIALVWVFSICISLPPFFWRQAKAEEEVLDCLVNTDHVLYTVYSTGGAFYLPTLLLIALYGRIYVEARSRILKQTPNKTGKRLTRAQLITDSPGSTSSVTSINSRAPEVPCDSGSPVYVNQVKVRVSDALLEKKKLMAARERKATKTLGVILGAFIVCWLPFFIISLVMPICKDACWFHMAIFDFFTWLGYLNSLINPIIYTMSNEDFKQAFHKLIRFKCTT

Target: T1, 5-HT1B receptor (Cavia porcellus, UniProt O08892)
T1 construct: from tissue; host or cells: whole animal, male Dunkin-Hartley guinea pig
Assay: guinea pig hypothermia test (reversal of 5HT1B agonist-induced hypothermia)
Format: in vivo
Settings: reversing 5HT1B agonist-induced hypothermia in the guinea pig; one range stated for the listed examples together

In the case of `CN1CCN(c2cc(F)cc3c(=O)cc(C(=O)Nc4ccc(N5CCN(S(C)(=O)=O)CC5)cc4)oc23)CC1` [Example 56, 6-Fluoro-8-(4-methyl-piperazin-1-yl)-4-oxo-4H-chromene-2-carboxylic Acid [4-(4-methanesulfonyl-piperazin-1-yl)-phenyl]-amide], the “5HT1B antagonist activity, dosage range” value is reported as 0.006 to 5.5 mg/kg.
